For at least one entry, the source does not settle the construct or the ends of the probe. For part of these data: Results from cells or extracts need not show a direct contact.
Experiments:
[1] = target: Tn3 resolvase NM R2A,E56K,G101S,D102Y,M103I,Q105L (Escherichia coli) (UniProt P0ADI2); assay: activity assay; conditions: in vitro, about half of pTet(I x I) recombined in 4 min; more active than M; purified recombinant protein
[2] = target: Tn3 resolvase M G101S,D102Y,M103I,Q105L (Escherichia coli) (UniProt P0ADI2); assay: activity assay; conditions: in vitro recombination of supercoiled pTet(I x I); also active in E. coli; purified recombinant protein
[3] = target: Tn3 resolvase wild type (Escherichia coli) (UniProt P0ADI2); assay: binding assay; conditions: CITED binds site I but no recombination of I x I without acc; protein in cells

## CGTTCGAAATATTATAAATTATCAGACA (double strand) [res site I (I x I substrate)]
[1]
  activity on this sequence: active
[2]
  activity on this sequence: active
[3]
  binding result: binds
